Test results published in article PMC7039206.

Amino acid sequences for entries named in this document (tags omitted).
UniProt O43399: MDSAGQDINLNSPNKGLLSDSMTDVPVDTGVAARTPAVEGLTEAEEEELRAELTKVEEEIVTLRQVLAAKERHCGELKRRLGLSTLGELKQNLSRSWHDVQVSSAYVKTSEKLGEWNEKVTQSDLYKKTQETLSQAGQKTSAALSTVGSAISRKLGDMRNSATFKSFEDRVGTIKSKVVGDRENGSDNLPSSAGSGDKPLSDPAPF
UniProt P61019: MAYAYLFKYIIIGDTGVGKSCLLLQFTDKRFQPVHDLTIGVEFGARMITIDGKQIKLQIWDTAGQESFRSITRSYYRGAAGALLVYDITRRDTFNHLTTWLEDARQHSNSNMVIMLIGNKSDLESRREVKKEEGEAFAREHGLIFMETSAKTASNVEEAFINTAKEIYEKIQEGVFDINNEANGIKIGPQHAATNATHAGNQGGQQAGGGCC
UniProt P51148: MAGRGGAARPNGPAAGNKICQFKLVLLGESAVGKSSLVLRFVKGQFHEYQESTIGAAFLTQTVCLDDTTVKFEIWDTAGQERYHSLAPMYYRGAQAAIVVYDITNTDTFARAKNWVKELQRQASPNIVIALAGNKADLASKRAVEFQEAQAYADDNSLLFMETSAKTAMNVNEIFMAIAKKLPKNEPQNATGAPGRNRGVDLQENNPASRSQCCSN

B1: tumor protein D52 (TPD52) (protein, UniProt P55327 1-224)
chain: MDCREMDLYEDYQSPFDFDAGVNKSYLYLSPSGNSSPPGSPTLQKFGLLRTDPVPEEGEDVAATISATETLSEEEQEELRRELAKVEEEIQTLSQVLAAKEKHLAEIKRKLGINSLQELKQNIAKGWQDVTATSAYKKTSETLSQAGQKASAAFSSVGSVITKKLEDVKNSPTFKSFEEKVENLKSKVGGTKPAGGDFGEVLNSAANASATTTEPLPEKTQESL
B2: TPD53 (TPD52L1) (protein, UniProt Q16890 1-204)
chain: MEAQAQGLLETEPLQGTDEDAVASADFSSMLSEEEKEELKAELVQLEDEITTLRQVLSAKERHLVEIKQKLGMNLMNELKQNFSKSWHDMQTTTAYKKTHETLSHAGQKATAAFSNVGTAISKKFGDMSYSIRHSISMPAMRNSPTFKSFEERVETTVTSLKTKVGGTNPNGGSFEEVLSSTAHASAQSLAGGSRRTKEEELQC

target: GFP-tagged tumor protein D54 (GFP-TPD54) (human) (UniProt O43399); test: affinity purification with mass spectrometry; GFP-Trap beads, lysates of HeLa cells expressing GFP-TPD54 or GFP (control); lysis buffer 10 mM Tris-HCl pH 7.5, 150 mM NaCl, 0.5 mM EDTA, 0.5% NP-40; 1 h incubation; washes with 500 mM NaCl; four experiments, comparative volcano plot

binding, binds:
Rab2a (from UniProt P61019 1-212)
Rab5c (from UniProt P51148 1-216)
B1
B2

Results are given in words; binding and its absence hold for the method and conditions named. Binding seen in cells or lysates may run through a third protein. Here binding means that the protein was enriched with, or labelled near, the bait; the list need not be complete.
